Experimental data published in publication PMC4044427.
No constants are given. Whether binding was seen depends on the method and setting. In cells and extracts the contact can be indirect. Some binding calls cover weakened binding; strength is not graded here.

Protein sequences, listed by entry. Tags and fused reporters are not part of them.
UniProt O95251: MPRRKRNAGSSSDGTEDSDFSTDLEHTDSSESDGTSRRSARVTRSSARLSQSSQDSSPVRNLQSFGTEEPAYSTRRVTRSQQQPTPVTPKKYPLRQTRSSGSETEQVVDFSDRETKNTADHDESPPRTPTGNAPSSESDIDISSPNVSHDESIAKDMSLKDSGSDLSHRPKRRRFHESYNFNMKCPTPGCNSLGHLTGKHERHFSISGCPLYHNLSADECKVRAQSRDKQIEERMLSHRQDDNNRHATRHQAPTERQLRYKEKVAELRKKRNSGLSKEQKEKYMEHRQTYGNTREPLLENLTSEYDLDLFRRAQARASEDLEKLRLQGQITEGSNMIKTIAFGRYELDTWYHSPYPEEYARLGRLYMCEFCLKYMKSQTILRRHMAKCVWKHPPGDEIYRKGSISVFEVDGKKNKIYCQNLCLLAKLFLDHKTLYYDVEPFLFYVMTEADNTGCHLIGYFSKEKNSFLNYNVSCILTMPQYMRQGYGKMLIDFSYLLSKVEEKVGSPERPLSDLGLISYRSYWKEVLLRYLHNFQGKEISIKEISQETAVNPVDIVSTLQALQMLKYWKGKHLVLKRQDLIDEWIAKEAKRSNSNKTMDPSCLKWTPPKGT
UniProt Q92831: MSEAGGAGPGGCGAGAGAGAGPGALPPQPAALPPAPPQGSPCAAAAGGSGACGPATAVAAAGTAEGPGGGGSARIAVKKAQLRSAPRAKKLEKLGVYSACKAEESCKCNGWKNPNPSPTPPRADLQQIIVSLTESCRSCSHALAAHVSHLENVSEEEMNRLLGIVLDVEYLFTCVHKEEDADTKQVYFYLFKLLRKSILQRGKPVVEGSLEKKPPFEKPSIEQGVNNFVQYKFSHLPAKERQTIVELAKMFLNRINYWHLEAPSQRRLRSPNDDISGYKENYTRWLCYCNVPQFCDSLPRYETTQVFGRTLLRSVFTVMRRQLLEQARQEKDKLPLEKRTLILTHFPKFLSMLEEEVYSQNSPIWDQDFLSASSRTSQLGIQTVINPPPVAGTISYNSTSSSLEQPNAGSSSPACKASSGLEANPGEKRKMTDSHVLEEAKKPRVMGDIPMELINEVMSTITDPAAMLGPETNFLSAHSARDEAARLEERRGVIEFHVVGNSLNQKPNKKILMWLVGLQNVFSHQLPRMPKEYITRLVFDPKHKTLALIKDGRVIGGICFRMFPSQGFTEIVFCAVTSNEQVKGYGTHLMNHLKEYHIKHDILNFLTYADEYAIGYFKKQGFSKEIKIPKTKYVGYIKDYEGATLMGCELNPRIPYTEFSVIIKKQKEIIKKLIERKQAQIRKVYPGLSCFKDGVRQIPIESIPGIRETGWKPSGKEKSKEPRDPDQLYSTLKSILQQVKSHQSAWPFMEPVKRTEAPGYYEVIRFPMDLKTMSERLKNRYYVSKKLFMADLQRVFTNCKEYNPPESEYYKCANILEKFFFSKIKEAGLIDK
UniProt P0C746: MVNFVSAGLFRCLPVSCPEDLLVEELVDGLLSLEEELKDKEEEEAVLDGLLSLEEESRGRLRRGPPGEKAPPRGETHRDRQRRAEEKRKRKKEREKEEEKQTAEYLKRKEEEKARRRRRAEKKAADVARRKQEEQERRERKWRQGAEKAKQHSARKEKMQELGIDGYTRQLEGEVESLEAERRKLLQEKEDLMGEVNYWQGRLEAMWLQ

How the values were obtained:
[1] = biological target: HBO1 (UniProt O95251); test: co-IP; co-immunoprecipitation; cells, antibodies and conditions not told
[2] = biological target: p/CAF (UniProt Q92831); test: as above

With “HTLV-1 basic leucine zipper factor (HBZ) (from UniProt P0C746 1-209)” the binding [1] was “binds” and the binding [2] was “binds”.
